Values from PubChem BioAssay AID1159579 (Peter MacCallum Cancer Centre, 2015).

Screen: 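Retest candidate lymphatic endothelial migration regulators using several independent siRNAs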 (follow-up of hits)
System: human dermal lymphatic endothelial cells
Knock-down reagent: single siRNA against human genes, 25 nM
Read-out: 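Scratch wound imaging measuring area filled by moving cells plus nuclei number, averaged over two wells and scaled to mock-transfected controls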
Reading the numbers: migration relative to mock: higher = more migration into the scratch; mean nuclei count: higher = more cells remaining
Rule for the call: 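a ratio of at most 0.6 or at least 1.3 marks altered migration and an active call; a mean nuclei count under 3300 forces an inactive call regardless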
Calls: active = migration changed (impaired or accelerated); inactive = no migration change, or too few cells
In all, the deposit lists about 2,000 reagents; shown is an unselected part. In the full data, 549 (27%) were called active. 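Some migration ratios are negative; siRNAs with too few cells are inactive whatever their migration ratio.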 The numbers tell different reagents against one gene apart. Not all columns of the deposit are shown. No sequences are given here. Not stated in the record: the time to read-out.

gene knocked down	reagent no.	migration relative to mock	mean nuclei count	outcome
RSPH9 (radial spoke head component 9)	1	0.86	5872	inactive
RSPH9 (radial spoke head component 9)	2	1.09	5946	inactive
RSPH9 (radial spoke head component 9)	3	0.85	5940	inactive
RSPH9 (radial spoke head component 9)	4	0.92	6364	inactive
FLG2 (filaggrin 2)	1	0.41	4858	active
FLG2 (filaggrin 2)	2	0.9	4392	inactive
FLG2 (filaggrin 2)	3	0.96	6424	inactive
FLG2 (filaggrin 2)	4	0.48	5750	active
SDCCAG8 (SHH signaling and ciliogenesis regulator SDCCAG8)	1	0.26	4045	active
SDCCAG8 (SHH signaling and ciliogenesis regulator SDCCAG8)	2	0.36	5262	active
SDCCAG8 (SHH signaling and ciliogenesis regulator SDCCAG8)	3	1.1	5190	inactive
SDCCAG8 (SHH signaling and ciliogenesis regulator SDCCAG8)	4	0.7	3962	inactive
PABPC4 (poly(A) binding protein cytoplasmic 4)	1	0.44	4423	active
PABPC4 (poly(A) binding protein cytoplasmic 4)	2	0.72	6056	inactive
PABPC4 (poly(A) binding protein cytoplasmic 4)	3	1.08	5026	inactive
PABPC4 (poly(A) binding protein cytoplasmic 4)	4	0.8	4766	inactive
TMEM121B (transmembrane protein 121B)	1	0.56	5827	active
TMEM121B (transmembrane protein 121B)	2	0.72	6658	inactive
TMEM121B (transmembrane protein 121B)	3	-0.77	3552	active
TMEM121B (transmembrane protein 121B)	4	0.58	3661	active
YWHAG	1	-0.38	3894	active
YWHAG	2	0.94	5950	inactive
YWHAG	3	1.14	4956	inactive
YWHAG	4	0.64	5972	inactive
PER1 (period circadian regulator 1)	1	0.96	5074	inactive
PER1 (period circadian regulator 1)	2	1.14	5694	inactive
PER1 (period circadian regulator 1)	3	0.88	6339	inactive
PER1 (period circadian regulator 1)	4	0.88	5516	inactive
TRIM51G (tripartite motif-containing 51G)	1	0.74	6034	inactive
TRIM51G (tripartite motif-containing 51G)	2	0.84	5494	inactive
TRIM51G (tripartite motif-containing 51G)	3	0.37	4174	active
TRIM51G (tripartite motif-containing 51G)	4	0.26	3172	inactive
ACP2 (acid phosphatase 2, lysosomal)	1	0.48	6456	active
ACP2 (acid phosphatase 2, lysosomal)	2	0.88	5432	inactive
ACP2 (acid phosphatase 2, lysosomal)	3	-0.2	5747	active
ACP2 (acid phosphatase 2, lysosomal)	4	0.52	6140	active
CTRL (chymotrypsin like)	1	0.78	5598	inactive
CTRL (chymotrypsin like)	2	0.5	3566	active
CTRL (chymotrypsin like)	3	0.98	5604	inactive
CTRL (chymotrypsin like)	4	0.7	5759	inactive
PRNP (prion protein (Kanno blood group))	1	0.91	5236	inactive
PRNP (prion protein (Kanno blood group))	2	1.2	5456	inactive
PRNP (prion protein (Kanno blood group))	3	1.14	4563	inactive
PRNP (prion protein (Kanno blood group))	4	0.85	4192	inactive
RAD21 (RAD21 cohesin complex component)	1	0.94	5403	inactive
RAD21 (RAD21 cohesin complex component)	2	0.14	4942	active
RAD21 (RAD21 cohesin complex component)	3	0.73	5587	inactive
RAD21 (RAD21 cohesin complex component)	4	0.2	4002	active
ABLIM1 (actin binding LIM protein 1)	1	0.95	6625	inactive
ABLIM1 (actin binding LIM protein 1)	2	0.69	6175	inactive
ABLIM1 (actin binding LIM protein 1)	3	1.15	5836	inactive
ABLIM1 (actin binding LIM protein 1)	4	0.43	3370	active
FCRL2 (Fc receptor like 2)	1	0.54	4001	active
FCRL2 (Fc receptor like 2)	2	0.48	5798	active
FCRL2 (Fc receptor like 2)	3	0.5	5010	active
FCRL2 (Fc receptor like 2)	4	0.48	4553	active
TUBB2A (tubulin beta 2A class IIa)	1	-0.42	5518	active
TUBB2A (tubulin beta 2A class IIa)	2	0.88	6947	inactive
TUBB2A (tubulin beta 2A class IIa)	3	0.62	6351	inactive
TUBB2A (tubulin beta 2A class IIa)	4	0.77	6380	inactive
TTLL12 (tubulin tyrosine ligase like 12)	1	0.7	6364	inactive
TTLL12 (tubulin tyrosine ligase like 12)	2	0.76	5136	inactive
TTLL12 (tubulin tyrosine ligase like 12)	3	0.7	5606	inactive
TTLL12 (tubulin tyrosine ligase like 12)	4	0.48	3338	active
PLOD1 (procollagen-lysine,2-oxoglutarate 5-dioxygenase 1)	1	-0.45	4178	active
PLOD1 (procollagen-lysine,2-oxoglutarate 5-dioxygenase 1)	2	0.83	6450	inactive
PLOD1 (procollagen-lysine,2-oxoglutarate 5-dioxygenase 1)	3	1.08	6223	inactive
PLOD1 (procollagen-lysine,2-oxoglutarate 5-dioxygenase 1)	4	0.93	7436	inactive

A stretch of the results above, for reference:
gene knocked down	reagent no.	migration relative to mock	mean nuclei count	outcome
PABPC4 (poly(A) binding protein cytoplasmic 4)	1	0.44	4423	active
PABPC4 (poly(A) binding protein cytoplasmic 4)	2	0.72	6056	inactive
PABPC4 (poly(A) binding protein cytoplasmic 4)	3	1.08	5026	inactive
PABPC4 (poly(A) binding protein cytoplasmic 4)	4	0.8	4766	inactive
TMEM121B (transmembrane protein 121B)	1	0.56	5827	active
TMEM121B (transmembrane protein 121B)	2	0.72	6658	inactive
TMEM121B (transmembrane protein 121B)	3	-0.77	3552	active
TMEM121B (transmembrane protein 121B)	4	0.58	3661	active
YWHAG	1	-0.38	3894	active
